These are yes or no findings as the source states them, for the method shown. In cells and extracts the contact can be indirect. Some results given as binding are weak or reduced against the parent protein; the word gives no strength.
Molecular target: T1, Tumor endothelial marker 1 (TEM1) (human (endogenous in NHDF)) (UniProt Q9HCU0)
T1 sequence: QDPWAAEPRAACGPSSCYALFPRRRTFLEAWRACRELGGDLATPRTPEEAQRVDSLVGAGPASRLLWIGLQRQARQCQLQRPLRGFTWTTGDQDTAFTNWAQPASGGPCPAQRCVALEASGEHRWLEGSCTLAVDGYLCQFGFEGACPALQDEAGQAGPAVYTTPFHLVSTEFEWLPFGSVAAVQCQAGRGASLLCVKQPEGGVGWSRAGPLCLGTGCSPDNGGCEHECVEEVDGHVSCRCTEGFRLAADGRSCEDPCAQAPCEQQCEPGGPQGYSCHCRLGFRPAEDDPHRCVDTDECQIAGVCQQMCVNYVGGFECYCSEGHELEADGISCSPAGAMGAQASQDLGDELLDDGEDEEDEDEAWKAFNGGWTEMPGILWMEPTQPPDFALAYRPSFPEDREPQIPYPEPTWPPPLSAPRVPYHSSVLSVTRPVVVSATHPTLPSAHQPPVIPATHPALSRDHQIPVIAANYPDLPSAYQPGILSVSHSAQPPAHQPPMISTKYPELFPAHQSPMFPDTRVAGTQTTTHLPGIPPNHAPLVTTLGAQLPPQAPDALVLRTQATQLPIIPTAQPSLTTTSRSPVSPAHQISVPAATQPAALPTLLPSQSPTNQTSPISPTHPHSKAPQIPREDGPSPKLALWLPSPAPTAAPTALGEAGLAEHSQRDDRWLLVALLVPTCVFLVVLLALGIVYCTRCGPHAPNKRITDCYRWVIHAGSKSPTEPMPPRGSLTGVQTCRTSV
Assay: co-IP; NHDF cultured with 10% FBS DMEM, lysed in 0.1% Triton X-100, 0.1 M Tris pH 8.1 with phosphatase and protease inhibitors; 1000 μg lysate with 1 μg anti-TEM1 antibody (or normal rabbit IgG) and protein A and G agarose beads at 4 °C overnight; Western blot; reverse precipitation with a TGFBR2 antibody

Sequences of proteins named here, by UniProt entry; tags and fusion partners are left off. Residues count along the entry.
UniProt P37173, residues 23-567: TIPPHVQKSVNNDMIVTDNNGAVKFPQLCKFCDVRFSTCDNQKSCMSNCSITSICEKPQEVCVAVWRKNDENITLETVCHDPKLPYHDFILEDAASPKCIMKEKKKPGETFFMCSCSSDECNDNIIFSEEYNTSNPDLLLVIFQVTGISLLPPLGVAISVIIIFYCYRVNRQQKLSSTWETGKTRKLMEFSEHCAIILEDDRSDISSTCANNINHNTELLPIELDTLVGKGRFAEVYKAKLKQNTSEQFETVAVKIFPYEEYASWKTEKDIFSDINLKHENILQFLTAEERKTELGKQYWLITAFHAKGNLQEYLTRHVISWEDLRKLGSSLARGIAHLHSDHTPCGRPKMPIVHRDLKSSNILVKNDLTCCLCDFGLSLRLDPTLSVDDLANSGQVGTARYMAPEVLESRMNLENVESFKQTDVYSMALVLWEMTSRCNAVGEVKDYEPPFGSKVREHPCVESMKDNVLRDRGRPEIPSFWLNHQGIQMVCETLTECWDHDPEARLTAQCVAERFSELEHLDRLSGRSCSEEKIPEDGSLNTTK

binding: binds
Substance: TGF-β receptor II (TGFBR2) (from UniProt P37173 23-567)
